Measurements taken from paper doi:10.1101/2025.06.10.658803.
No constants are given. Whether binding was seen depends on the method and setting. Binding seen in cells or lysates may run through a third protein. Some results given as binding are weak or reduced against the parent protein; the word gives no strength. Sequences can lack the tags named with a protein.

Sequences of proteins named here, by UniProt entry; tags and fusion partners are left off. A change or cut given only in a name is not applied to a line headed by its entry. A line that says so, or that is headed by a name, gives the form on record, which may keep a tag or linker.
LAMP2B-HA (P13473, form named): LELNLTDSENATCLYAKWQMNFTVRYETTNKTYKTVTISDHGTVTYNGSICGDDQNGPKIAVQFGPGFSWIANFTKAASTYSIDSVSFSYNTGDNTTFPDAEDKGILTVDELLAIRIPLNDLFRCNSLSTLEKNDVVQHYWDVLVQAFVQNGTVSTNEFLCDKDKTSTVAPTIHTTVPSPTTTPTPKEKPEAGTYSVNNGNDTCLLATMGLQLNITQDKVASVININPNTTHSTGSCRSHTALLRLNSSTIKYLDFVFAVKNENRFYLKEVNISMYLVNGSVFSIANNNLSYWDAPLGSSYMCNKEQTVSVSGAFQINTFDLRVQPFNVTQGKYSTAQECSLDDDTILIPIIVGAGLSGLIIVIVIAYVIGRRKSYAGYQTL

Biological target: LAMP2B-HA (UniProt P13473)
Experiment: co-IP

- binding: binds weakly
B1: FLAG-YTHDF3 (protein, UniProt Q7Z739 1-585)
chain: MSATSVDQRPKGQGNKVSVQNGSIHQKDAVNDDDFEPYLSSQTNQSNSYPPMSDPYMPSYYAPSIGFPYSLGEAAWSTAGDQPMPYLTTYGQMSNGEHHYIPDGVFSQPGALGNTPPFLGQHGFNFFPGNADFSTWGTSGSQGQSTQSSAYSSSYGYPPSSLGRAITDGQAGFGNDTLSKVPGISSIEQGMTGLKIGGDLTAAVTKTVGTALSSSGMTSIATNSVPPVSSAAPKPTSWAAIARKPAKPQPKLKPKGNVGIGGSAVPPPPIKHNMNIGTWDEKGSVVKAPPTQPVLPPQTIIQQPQPLIQPPPLVQSQLPQQQPQPPQPQQQQGPQPQAQPHQVQPQQQQLQNRWVAPRNRGAGFNQNNGAGSENFGLGVVPVSASPSSVEVHPVLEKLKAINNYNPKDFDWNLKNGRVFIIKSYSEDDIHRSIKYSIWCSTEHGNKRLDAAYRSLNGKGPLYLLFSVNGSGHFCGVAEMKSVVDYNAYAGVWSQDKWKGKFEVKWIFVKDVPNNQLRHIRLENNDNKPVTNSRDTQEVPLEKAKQVLKIIATFKHTTSIFDDFAHYEKRQEEEEAMRRERNRNKQ
